In the supplement of paper PMC7646827:
Counter-ions that a name gives are not always drawn. Single values are uncertain, as repeats are few or missing.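 All cells are established human bladder cancer lines, one derived from a patient-derived xenograft. A luminescent ATP assay measured viability as percent inhibition relative to vehicle across seven dilutions. The paper rates scores above 59 very active, 30–59 active, 21–29 semi-active, 9–20 low active, below 9 inactive.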

How the values were obtained:
Test in all cases: drug sensitivity score DSS3 (score 0-100); higher = more sensitive; extreme values may be limits of the assay
Settings in all cases: culture: 3D, ultra-low attachment; treatment time: 5 days
[1] = system: UM-UC-14
[2] = system: BC8149
[3] = system: UM-UC-6
[4] = system: UM-UC-3
[5] = system: UM-UC-12
[6] = system: TCCSUP
[7] = system: SW780
[8] = system: UM-UC-15
[9] = system: UM-UC-9
[10] = system: 5637
[11] = system: SCaBER
[12] = system: UM-UC-17
[13] = system: J82
[14] = system: UM-UC-5
[15] = system: UM-UC-18
[16] = system: UM-UC-1
[17] = system: T-24

Row | Compound | drug sensitivity score DSS3 [1] | drug sensitivity score DSS3 [2] | drug sensitivity score DSS3 [3] | drug sensitivity score DSS3 [4] | drug sensitivity score DSS3 [5] | drug sensitivity score DSS3 [6] | drug sensitivity score DSS3 [7] | drug sensitivity score DSS3 [8] | drug sensitivity score DSS3 [9] | drug sensitivity score DSS3 [10] | drug sensitivity score DSS3 [11] | drug sensitivity score DSS3 [12] | drug sensitivity score DSS3 [13] | drug sensitivity score DSS3 [14] | drug sensitivity score DSS3 [15] | drug sensitivity score DSS3 [16] | drug sensitivity score DSS3 [17]
1 | CC1(N)CCN(c2cnc(-c3cccc(Cl)c3Cl)c(N)n2)CC1 [SHP099 dihydrochloride] (max dose 10000 nM) | 0 | 0 | 0 | 0 | 0.338 | 0 | 0 | 0.0124 | 0 | 0 | 0 | 0 | 0 | 0 | 0.374 | 0 | 0.379
2 | N#Cc1c(O)c2c(-c3ccc(-c4ccccc4O)cc3)csc2[nH]c1=O (max dose 10000 nM) | 3.23 | 5.44 | 0 | 1.86 | 1.48 | 4.51 | 0.108 | 0 | 0 | 10.8 | 0.647 | 2.38 | 0 | 0.136 | 12.3 | 0 | 0.353
3 | COc1cc2c(Oc3ccc4[nH]c(C)cc4c3F)ncnc2cc1OCCCN1CCCC1 [Cediranib] (max dose 10000 nM) | 7.65 | 0 | 0 | 0 | 13.4 | 0.619 | 0 | 0 | 6.67 | 0 | 0 | 0 | 0 | 10.7 | 0 | 10.4 | 0
4 | Cn1cc(-c2ccc3c(c2)CCN3C(=O)Cc2cccc(C(F)(F)F)c2)c2c(N)ncnc21 (max dose 10000 nM) | 0.569 | 0 | 0 | 0 | 0.296 | 0.503 | 0 | 7.55 | 0 | 0 | 0 | 0 | 0 | 0 | 0 | 0 | 0
5 | C=CC(=O)N1CCC(Oc2cc3c(Nc4ccc(Cl)c(Cl)c4F)ncnc3cc2OC)CC1 [Poziotinib] (max dose 10000 nM) | 2.11 | 14.1 | 18.8 | 0 | 23.8 | 21.2 | 0 | 9.41 | 24.4 | 50.5 | 53.3 | 0.186 | 1.31 | 0 | 43 | 2.41 | 8.67
6 | Cc1cc(C)cc(Oc2ccc(CNC(=O)[C@H](C)N)cc2C)c1 [SGC2085] (max dose 10000 nM) | 0 | 0 | 0 | 0 | 0 | 0 | 0 | 0.335 | 0 | 0 | 0 | 0 | 0 | 0 | 0 | 0 | 0
7 | Cc1cc(Nc2ncc(Cl)c(Nc3ccccc3S(=O)(=O)C(C)C)n2)c(OC(C)C)cc1C1CCNCC1 [ceritinib] (max dose 10000 nM) | 39.7 | 43.5 | 9.34 | 8.59 | 35 | 62.8 | 10.7 | 2.69 | 4.65 | 58.7 | 23.4 | 26.9 | 7.33 | 2.53 | 52.2 | 37.3 | 0.224
8 | CC[C@@]1(O)C(=O)OCc2c1cc1n(c2=O)Cc2cc3ccccc3nc2-1 [Camptothecin] (max dose 5000 nM) | 64 | 79.8 | 46.9 | 62.6 | 73.5 | 76.5 | 35.1 | 18 | 30.4 | 80.3 | 36 | 50.1 | 62.3 | 22.3 | 76.8 | 76.9 | 23.7
9 | CC(=O)Nc1cccc2c1c(Sc1ccc(Cl)cc1)c(C)n2CC(=O)O [AZD1981] (max dose 10000 nM) | 0.0545 | 0.178 | 0 | 0 | 0 | 0.146 | 0 | 0 | 0 | 0 | 0 | 0 | 0 | 0 | 0 | 0 | 0
10 | COc1ccc(S(=O)(=O)Nc2cccnc2Nc2ccc(O)cc2)cc1 [ABT-751 (E7010)] (max dose 10000 nM) | 10.5 | 7.78 | 6.54 | 1.36 | 1.15 | 26.6 | 1.9 | 0 | 0 | 15.1 | 2.71 | 11.9 | 0.801 | 0 | 6.5 | 7.85 | 0.786
11 | CN(C)CC[C@H](CSc1ccccc1)Nc1ccc(S(=O)(=O)NC(=O)c2ccc(N3CCN(Cc4ccccc4-c4ccc(Cl)cc4)CC3)cc2)cc1[N+](=O)[O-] [ABT-737] (max dose 10000 nM) | 9.01 | 24.6 | 4.35 | 7.3 | 13.4 | 19.9 | 2.42 | 0 | 1.65 | 33.3 | 12.1 | 2.34 | 1.93 | 8.37 | 5.97 | 5.58 | 1.45
